Among the data in patent US4552864A (Reanal Finomvegyszergyar, priority 1982, dated 1985) are step yield values, retold here.

A short description of this data set: general procedure: solution-phase peptide synthesis; azide coupling (NaNO2/HCl from hydrazide); pentafluorophenyl active ester (OPFP).

[ ]: non-standard residue; d: D form. pGlu = O=C1CC[C@@H](C(=O)O)N1

Turning to BOC-D-Cpa-Leu-Arg(NO2)-Pro-Gly-NH2, the step yield (coupling step) amounted to 95%.

Take “Glp-His-Trp-Ser-Tyr-D-Cpa-Leu-Arg-Pro-Gly-NH2”: where the note is “coupling step”, the step yield amounted to 50%. For “Glp-His-Trp-Ser-Tyr-D-Thx-Leu-Arg-Pro-Gly-NH2”, the step yield (coupling step) is reported as 25%. On to Glp-His-Trp-Ser-Tyr-N2 H3, for which the step yield (late stage modification step, calculated for the two steps) is reported as 56.9%.

H-D-Cpa-Leu-Arg-Pro-Gly-NH2.HF returned a step yield (late stage modification step) of 85%.

As for H-D-Thx-Leu-Arg-Pro-Gly-NH2.HCl, the step yield (late stage modification step) is listed as 90%. [pGlu]HWSY-OMe registered a step yield (coupling step) of 100%.
